Data reported in US11384115B2, “Nuclear sulfated oxysterol, potent regulator of lipid homeostasis, for therapy of hypercholesterolemia, hypertriglycerides, fatty liver diseases, and atherosclerosis” (Virginia Commonwealth University, priority 2004, dated 2022).
Some results were stated once for a whole list of compounds, not compound by compound.

Test system: primary rat hepatocytes
Test: Bile acid synthesis rate, conversion of [14C]cholesterol into methanol/water-soluble products
Type: cell-based
Conditions: addition to primary rat hepatocytes
Description: FIGS. 9A-9B. Effect of the nuclear oxysterol on cholesterol uptake and bile acid biosynthesis. Rat primary hepatocyes were treated with nuclear extracts (methanol/water phase) (A and B) or purified nuclear oxysterol dissolved in control nuclear extract (C) 24 hrs after plating them. Then [^14C]cholesterol was added as described in FIG. 1. Culture media were then harvested at 0, 6, 12, and 24 hrs and radioactivity quantified (A). Bile acid synthesis rates (B and C) were measured as the conversion of [^14C]cholesterol into methanol/water extractable counts as described in (9). Bile acid synthetic rates were determined by the addition of 2.5 μCi of [^14C]cholesterol to each […] mm plate of confluent primary rat hepatocyte cultures ( 2.5×10^7 cells) 24 hrs after plating. Media and cells were harvested […]. Conversion of [^14C]cholesterol into [^14C]-methanol-water soluble products was determined by scintillation counting after extraction with chloroform-methanol (2:1, vol/vol) of cells and of culture media. Rates of bile acid biosynthesis following recombinant adenovirus infection were calculated as the ratio of [^14C]-methanol-water soluble counts to the sum of chloroform plus methanol-water counts. Individual bile acids were identified by HPLC analysis as described above. […] The phases were collected separately and counted.

SMILES: C[C@H](CCCC(C)(C)O)[C@H]1CC[C@H]2[C@@H]3CC=C4C[C@@H](OS(=O)(=O)O)CC[C@]4(C)[C@H]3CC[C@]12C [25HC3S, 5-cholesten-3β, 25-diol 3-sulphate]
- increase in rates of bile acid synthesis: > 3.5 fold
